According to article PMC10724065:
These are yes or no findings as the source states them, for the method shown. Binding can be weak; no strength is given. Tags and fused reporters may be left off the sequences shown.

Biological target: Marchantia polymorpha MpSLY1 (yeast bait fusion) (Marchantia polymorpha)
Assay: two-hybrid; SLY1/GID2 baits (pGBKT7) and DELLA preys (pGADT7); spotted on SD/-LWAH/X, strain AH109, 3-5 d at 30 °C; strengths quantified as β-galactosidase units with CPRG in liquid culture, strain Y187 (ND if OD578 <0.01 after 3 h)

binding: binds
B1: Oryza sativa SLR1 (yeast prey fusion) (protein, UniProt Q7G7J6 1-625)
chain: MKREYQEAGGSSGGGSSADMGSCKDKVMAGAAGEEEDVDELLAALGYKVRSSDMADVAQKLEQLEMAMGMGGVSAPGAADDGFVSHLATDTVHYNPSDLSSWVESMLSELNAPLPPIPPAPPAARHASTSSTVTGGGGSGFFELPAAADSSSSTYALRPISLPVVATADPSAADSARDTKRMRTGGGSTSSSSSSSSSLGGGASRGSVVEAAPPATQGAAAANAPAVPVVVVDTQEAGIRLVHALLACAEAVQQENFAAAEALVKQIPTLAASQGGAMRKVAAYFGEALARRVYRFRPADSTLLDAAFADLLHAHFYESCPYLKFAHFTANQAILEAFAGCHRVHVVDFGIKQGMQWPALLQALALRPGGPPSFRLTGVGPPQPDETDALQQVGWKLAQFAHTIRVDFQYRGLVAATLADLEPFMLQPEGEADANEEPEVIAVNSVFELHRLLAQPGALEKVLGTVHAVRPRIVTVVEQEANHNSGSFLDRFTESLHYYSTMFDSLEGGSSGQAELSPPAAGGGGGTDQVMSEVYLGRQICNVVACEGAERTERHETLGQWRNRLGRAGFEPVHLGSNAYKQASTLLALFAGGDGYRVEEKEGCLTLGWHTRPLIATSAWRVAAA
